From US20090226372A1 (SANFORD BURNHAM MEDICAL RESEARCH INSTITUTE, published 2009)
These are yes or no findings as the source states them, for the method shown. Some binding calls cover weakened binding; strength is not graded here.

Sequences of proteins named here, by UniProt entry; tags and fusion partners are left off. Residues count along the entry.
UniProt O14786, residues 22-923: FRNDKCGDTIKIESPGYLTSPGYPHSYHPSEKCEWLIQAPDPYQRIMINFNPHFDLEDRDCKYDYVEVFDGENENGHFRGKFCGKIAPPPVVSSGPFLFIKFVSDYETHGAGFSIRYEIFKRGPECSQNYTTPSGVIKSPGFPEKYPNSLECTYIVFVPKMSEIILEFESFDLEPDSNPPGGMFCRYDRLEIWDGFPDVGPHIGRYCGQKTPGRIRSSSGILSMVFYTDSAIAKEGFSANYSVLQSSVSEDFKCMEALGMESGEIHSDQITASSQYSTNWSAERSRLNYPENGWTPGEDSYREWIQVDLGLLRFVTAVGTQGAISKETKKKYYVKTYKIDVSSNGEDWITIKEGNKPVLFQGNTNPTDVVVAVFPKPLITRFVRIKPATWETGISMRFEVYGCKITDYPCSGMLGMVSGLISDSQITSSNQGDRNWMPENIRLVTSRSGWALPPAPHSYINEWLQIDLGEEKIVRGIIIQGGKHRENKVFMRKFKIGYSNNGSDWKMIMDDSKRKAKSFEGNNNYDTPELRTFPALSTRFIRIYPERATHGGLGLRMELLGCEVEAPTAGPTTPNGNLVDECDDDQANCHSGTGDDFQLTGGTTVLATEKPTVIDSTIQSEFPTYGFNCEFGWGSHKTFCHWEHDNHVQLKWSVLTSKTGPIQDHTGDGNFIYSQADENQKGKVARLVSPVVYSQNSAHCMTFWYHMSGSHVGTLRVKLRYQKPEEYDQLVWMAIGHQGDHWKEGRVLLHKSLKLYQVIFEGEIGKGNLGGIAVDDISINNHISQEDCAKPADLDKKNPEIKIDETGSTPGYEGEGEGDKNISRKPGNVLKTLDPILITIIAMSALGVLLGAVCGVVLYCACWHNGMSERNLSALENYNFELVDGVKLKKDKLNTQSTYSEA

Legend:
[1] = molecular target: wild-type NRP-1 expressed on transiently transfected M21 melanoma cells (UniProt O14786); experiment: phage binding to M21 melanoma cells transiently transfected with NRP-1
[2] = molecular target: wild-type NRP-1 expressed on transiently transfected M21 melanoma cells (UniProt O14786); experiment: immunostaining and confocal imaging of M21 cells transiently transfected with NRP-1, 3 hours at 37 C

B1: T7 phage displaying RPARPAR (SEQ ID NO:2) (peptide)
chain: RPARPAR
notes: also called RPARPAR phage; RPARPAR T7; not shown: T7 bacteriophage major coat protein gp10 (T7-select display system); Limits
[1]
  binding: binds
[2]
  binding: binds
